# Out of some 330,000 compounds screened, about 7,700 (2.3%) were called active. This list was built around the results that the source calls inconclusive (neither active nor inactive); the mix of calls is not that of the screen. Calls come from the whole dose curve; as a rule, active = well fitted inhibition curve with a large enough effect; inconclusive = small, poorly fitted or top-dose-only effect, or effect the other way; inactive = flat fitted curve, though single readings scatter. Where the call is inconclusive, the potency comes from a doubtful curve fit.
# Test: qHTS screen for small molecules that inhibit ELG1-dependent DNA repair in human embryonic kidney (HEK293T) cells expressing luciferase-tagged ELG1; note: nearly all actives have a fitted effect of over 55% in size
# Conditions: HEK293T ELG1-luciferase reporter, luminescence, 16 h, DNA damage induced by 5-fluorouridine; series mostly up to 46.1 µM
# How it was run: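 Step one: seed 2,000 cells per well. Step two: pin-transfer compound or DMSO alongside 5-fluorouridine. Step three: incubate 16 hr, 37 °C, 5% CO2. Step four: add ONE-Glo, wait 30 min, read luminescence.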
# Potency is the fitted concentration of half-maximal effect.
row,Structure (SMILES),Potency
1,COc1cccc2cc(C(=O)c3ccccc3)oc12,"inconclusive: 20.6 µM [activator, partial curve]"
2,COc1ccc(-c2noc(C3CCCN(S(=O)(=O)c4cccc(Cl)c4C)C3)n2)cc1OC (stereo not given),"inconclusive: 18.4 µM [inhibitor, single point]"
3,Cc1ccccc1Oc1nc2ccccn2c(=O)c1/C=C(\C#N)C(=O)Nc1c(C)n(C)n(-c2ccccc2)c1=O,inactive
4,CCn1c(SCC(=O)NCc2ccccc2)nc2c(c1=O)SC(C)C2 (stereo not given),"inconclusive: 1.16 µM [activator, single point]"
5,NS(=O)(=O)c1cccc(NC(=O)c2cccc(S(=O)(=O)N3CCCCCC3)c2)c1,"inconclusive: 16.4 µM [inhibitor, partial curve, poor fit]"
6,Cc1ccc2nc3sc(C(=O)N4CCOCC4)c(N)c3cc2c1,"inconclusive: 0.092 µM [activator, partial curve, poor fit]"
7,Nc1ncnc2c1nc(SCCO)n2Cc1ccccc1,"inconclusive: 29.1 µM [inhibitor, single point]"
8,O=S(=O)(NCCOc1ccc(F)cc1)c1ccc2c(c1)OCCO2,inactive
9,Cc1ccc2cc(C)c3nnc(SCC(=O)Nc4nc5c(s4)CCCC5)n3c2c1C,inactive
10,CCOC(=O)c1c(C)c(C(=O)Nc2ccc(F)cc2)c(C)n1C,inactive
11,COc1ccc(-c2csc(N3CCN(c4cc5c(cc4Cl)nc(-c4ccncc4)n5CCOCCO)CC3)n2)cc1,"inconclusive: 5.8 µM [inhibitor, partial curve, poor fit]"
12,COc1ccc(C(=O)N/N=C\c2ccoc2)cc1,"inconclusive: 18.3 µM [activator, partial curve]"
13,CCS(=O)(=O)Nc1ccc(C2=NN(C(=O)c3ccccc3)C(c3cccs3)C2)cc1 (stereo not given),active: 16.4 µM
14,COc1ccc(-c2ccc(OC)c([C@H]3[C@@H]4C=CCC[C@@]4(C)C(=O)N3Cc3ccccc3)c2)cc1OC,"inconclusive: 29.1 µM [inhibitor, single point]"
15,O=C(CCn1nnc2ccccc2c1=O)N[C@@H](Cc1c[nH]c2ccccc12)C(=O)O,"inconclusive: 23.1 µM [activator, partial curve, poor fit]"
16,Cc1ccc(-c2cc(C(=O)Nc3cccnc3)[nH]n2)c(O)c1C,"inconclusive: 6.51 µM [activator, partial curve]"
17,CCNC(=S)Nc1cc(OCC)c(NC(=O)c2cccs2)cc1OCC,inactive
18,CCn1nnc(NC(=O)COc2ccc(C3CCCCC3)cc2)n1,"inconclusive: 11.6 µM [inhibitor, partial curve]"
19,CN(c1ccccc1)S(=O)(=O)c1cccc(C(=O)NCCc2ccc(O)c(O)c2)c1,"inconclusive: 20.6 µM [inhibitor, partial curve]"
20,Cc1c(C)n(CC(O)CN2CCCCCC2)c2ccccc12 (stereo not given),inactive
21,CCOC(=O)c1nc(Nc2ccc(Nc3ccccc3)cc2)c2ccccc2n1,active: 7.3 µM
22,COc1ccc(-c2ccc(SCC(=O)NC3CCCCC3)nn2)cc1OC,"inconclusive: 2.59 µM [activator, full curve]"
23,O=C1NC[C@H](Cc2ccc(O)cc2)N(CCc2cccc3ccccc23)C1=O,"inconclusive: 1.16 µM [inhibitor, single point]"
24,O=C(NCc1cccs1)C1CC(c2ccc(Cl)c(Cl)c2)=NO1 (stereo not given),inactive

row,Structure (SMILES),Potency
1,O=C(Nc1ccccc1-c1nnn(CC(=O)N2CCCc3ccccc32)n1)c1ccco1,"inconclusive: 18.4 µM [inhibitor, partial curve]"
2,CCn1nc(C(=O)OCC(=O)c2cc(C)n(Cc3cccs3)c2C)c2ccccc2c1=O,"inconclusive: 3.66 µM [activator, single point]"
3,Cn1cc(/C=N/NC(=O)c2ccc(C#N)cc2F)c2ccccc21,inactive
4,COc1ccc(C)cc1NC(=O)Nc1ccc(C(=O)N2CCCC2)cc1,"inconclusive: 16.4 µM [activator, partial curve]"
5,CN(Cc1ccccc1)c1c([N+](=O)[O-])c(=O)n(C)c2ccccc12,"inconclusive: 1.3 µM [activator, partial curve, poor fit]"
6,O=C(c1ccco1)n1nc(-c2ccco2)nc1SCc1ccccc1,"inconclusive: 23.1 µM [activator, single point]"
7,COc1cc(-c2nnc3sc(C4CCCCC4)nn23)cc(OC)c1OC,"inconclusive: 1.64 µM [inhibitor, full curve]"
8,CC(C)C1CC(CCNCc2ccc(N(C)C)cc2)(c2ccccc2)CCO1 (stereo not given),inactive
9,CN1CCN(C(=O)C2CC(c3ccc(F)cc3)=NO2)CC1 (stereo not given),"inconclusive: 18.4 µM [activator, single point]"
10,COc1cc(-n2nc(C)c3c2OC(N)=C(C#N)C3c2ccccc2)c(Cl)c(Br)c1O (stereo not given),"inconclusive: 18.4 µM [inhibitor, single point]"
11,Cc1ccc(OCc2ccccc2C)c([N+](=O)[O-])n1,"inconclusive: 11.6 µM [activator, partial curve]"
12,CC(C)CC(=O)Nc1nnc(CCc2ccccc2)s1,"inconclusive: 23.1 µM [activator, single point]"
13,COc1ccc(C2(c3ccc(OC)cc3)NC(=O)N(CC(=O)Nc3ccc(OC(F)F)cc3)C2=O)cc1,"inconclusive: 20.6 µM [inhibitor, partial curve]"
14,CC(C)(C)NC(=O)c1oc2ccccc2c1COc1ccccc1,inactive
15,COc1cccc(Nc2ncnc3c2cnn3C)c1,"inconclusive: 29.1 µM [activator, single point]"
16,O=C(NCc1ccccc1)c1nnc(CS(=O)(=O)c2ccccc2)o1,inactive
17,CCOC(=O)c1cc(-c2ccc(N3CCOCC3)cc2)nn1-c1ccccc1,"inconclusive: 20.6 µM [inhibitor, partial curve]"
18,CCC(C(=O)Nc1ccc(S(=O)(=O)Nc2ncccn2)cc1)c1ccccc1 (stereo not given),inactive
19,N#CC1=C(N)N(c2ccc(Br)cc2)C2=C(C(=O)CCC2)C1c1cccnc1 (stereo not given),inactive
20,CC(C)C(=O)NC(=S)/C=C1/N(C)c2ccccc2C1(C)C,"inconclusive: 20.6 µM [inhibitor, single point]"
21,Cc1c(O)ccc2c3c(c(=O)oc12)CCCC3,inactive
22,COc1ccc2c(c1)-c1c(sn(-c3ccc(OC)c(OC)c3)c1=S)C(C)(C)N2,"inconclusive: 18.4 µM [inhibitor, partial curve, poor fit]"
23,Cc1ccc(NC(=O)c2cc(N3C(=O)C=CC3=O)ccc2N2CCOCC2)cc1Cl,inactive
24,COc1ccccc1C(=O)NCC(=O)OCC(=O)c1ccc2c(c1)-c1ccccc1C2,inactive

row,Structure (SMILES),Potency
1,Cc1ccc(C(C)C)cc1OCC(=O)Nc1ccc(N2CCCCC2)cc1,inactive
2,Cc1cc(C)nc(NN=C2CCCC2)n1,"inconclusive: 7.31 µM [inhibitor, partial curve, poor fit]"
3,C[C@H](CO)N1C[C@H](C)[C@@H](CN(C)S(C)(=O)=O)Oc2ccc(NC(=O)CCC(F)(F)F)cc2C1=O,"inconclusive: 9.2 µM [activator, partial curve]"
4,Nc1cc(-c2cccc([N+](=O)[O-])c2)[nH]n1,inactive
5,CCOc1ccc(NC(=O)c2ccccc2CO)cc1,"inconclusive: 20.6 µM [activator, partial curve]"
6,O=C(CSc1ncn[nH]1)c1ccc2c(c1)OCCO2,"inconclusive: 11.2 µM [activator, partial curve, poor fit]"
7,Cc1nn(CC(=O)NNC(=S)NCC2CCCO2)c(C)c1Br (stereo not given),inactive
8,Cc1ccc(C(=O)Nc2cccc([N+](=O)[O-])c2)cc1S(=O)(=O)Nc1ccc(NC(=O)c2ccccc2)cc1,active: 5.17 µM
9,CC(=O)N1CCN(c2ccc(NC(=O)c3ccc(C(C)(C)C)cc3)cc2)CC1,"inconclusive: 29.1 µM [inhibitor, single point]"
10,COc1cc(/C=C(\C#N)c2nc3ccccc3s2)cc([N+](=O)[O-])c1O,"inconclusive: 25.9 µM [inhibitor, single point]"
11,Cc1ccc(NC(=S)NC2CCCCC2)cc1S(=O)(=O)N(C)C,"inconclusive: 29.1 µM [inhibitor, single point]"
12,O=C(CSc1ccccc1C(=O)O)Nc1ccc2c(c1)OCO2,inactive
13,COc1cc2ncnc(N[C@H](C)c3ccccc3)c2cc1OC,"inconclusive: 29.1 µM [inhibitor, single point]"
14,CC(=O)Nc1ccc(S(=O)(=O)NCc2ccc(C(=O)NCCCN3CCC(C)CC3)cc2)cc1,"inconclusive: 13 µM [activator, single point]"
15,O=C(CCCOc1ccccc1)N1CCCCC1,"inconclusive: 0.461 µM [activator, full curve]"
16,COc1ccc(-n2c(=O)c(CCC(=O)N3CCC(C)CC3)nc3ccccc32)cc1,inactive
17,Cc1cccc(NC(=O)CCC(=O)N/N=C/c2cc([N+](=O)[O-])ccc2O)c1,"inconclusive: 29.1 µM [inhibitor, single point]"
18,COc1cc(C(=O)Nc2ccc(C)cc2)c(-n2cnnn2)cc1OC,inactive
19,NCCCCNCCCN,"inconclusive: 18.3 µM [activator, partial curve, poor fit]"
20,Cc1ccc2nc(NC(=O)c3ccc(N4C(=O)CCC4=O)cc3)sc2c1,"inconclusive: 16.4 µM [activator, single point]"
21,CCn1c2ccccc2c2cc(NS(=O)(=O)c3ccccc3C)ccc21,"inconclusive: 4.47 µM [inhibitor, single point]"
22,CC(=O)c1ccc(OCC(=O)OCC(=O)N(CC(C)C)c2c(N)n(Cc3ccccc3)c(=O)[nH]c2=O)cc1,inactive
